Measured values published in publication PMC6643046.
Construct, isoform or probe ends are uncertain for at least one entry. For some of these results: At least one verdict rests on a figure or table, not on a statement of the authors.

Legend:
Assay in all cases: EMSA
[1] = test system: ZnF-Cst 2-6 (Mus musculus castaneus (CAST/EiJ)); conditions: 10 mM Tris pH 7.5, 50 mM KCl, 50 uM ZnCl2, 0.05% NP-40 (1x TKZN), usually 50 ng/ul polydIdC, 60 min at RT, 5% native PAGE in 0.5x TBE, recombinant protein, protein details: His
[2] = test system: ZnF-Cst (Mus musculus castaneus (CAST/EiJ)); conditions: 10 mM Tris pH 7.5, 50 mM KCl, 50 uM ZnCl2, 0.05% NP-40 (1x TKZN), usually 50 ng/ul polydIdC, 60 min at RT, 5% native PAGE in 0.5x TBE, protein translated in vitro, protein details: His
[3] = test system: MBP-eYFP-ZnF-Cst (Mus musculus castaneus (CAST/EiJ)); conditions: 250 nM protein, polydIdC; 10 mM Tris pH 7.5, 50 mM KCl, 50 uM ZnCl2, 0.05% NP-40 (1x TKZN), usually 50 ng/ul polydIdC, 60 min at RT; 5% native PAGE in 0.5x TBE; recombinant protein; protein details: His, MBP, eYFP; label: 5' biotin
[4] = test system: ZnF-Cst 1-11 (Mus musculus castaneus (CAST/EiJ)); conditions: 10 mM Tris pH 7.5, 50 mM KCl, 50 uM ZnCl2, 0.05% NP-40 (1x TKZN), usually 50 ng/ul polydIdC, 60 min at RT, 5% native PAGE in 0.5x TBE, recombinant protein, protein details: His
[5] = test system: Halo-ZnF-Cst 1-11 (Mus musculus castaneus (CAST/EiJ)); conditions: 10 mM Tris pH 7.5, 50 mM KCl, 50 uM ZnCl2, 0.05% NP-40 (1x TKZN), usually 50 ng/ul polydIdC, 60 min at RT, 5% native PAGE in 0.5x TBE, recombinant protein, protein details: His6-HaloTag
[6] = test system: eYFP-ZnF-Cst (Mus musculus castaneus (CAST/EiJ)); conditions: 10 mM Tris pH 7.5, 50 mM KCl, 50 uM ZnCl2, 0.05% NP-40 (1x TKZN), usually 50 ng/ul polydIdC, 60 min at RT, 5% native PAGE in 0.5x TBE, protein translated in vitro, protein details: His, eYFP
[7] = test system: eYFP-PRDM9-Cst (Mus musculus castaneus (CAST/EiJ)); conditions: trimer, assay II; 10 mM Tris pH 7.5, 50 mM KCl, 50 uM ZnCl2, 0.05% NP-40 (1x TKZN), usually 50 ng/ul polydIdC, 60 min at RT; 5% native PAGE in 0.5x TBE; protein translated in vitro; protein details: His, eYFP; label: 5' biotin
[8] = test system: eYFP-ZnF-Cst 1-11 (Mus musculus castaneus (CAST/EiJ)); conditions: 10 mM Tris pH 7.5, 50 mM KCl, 50 uM ZnCl2, 0.05% NP-40 (1x TKZN), usually 50 ng/ul polydIdC, 60 min at RT, 5% native PAGE in 0.5x TBE, recombinant protein, protein details: His, eYFP
[9] = test system: ZnF-Cst 2-8 (Mus musculus castaneus (CAST/EiJ)); conditions: 10 mM Tris pH 7.5, 50 mM KCl, 50 uM ZnCl2, 0.05% NP-40 (1x TKZN), usually 50 ng/ul polydIdC, 60 min at RT, 5% native PAGE in 0.5x TBE, recombinant protein, protein details: His
[10] = test system: ZnF-Cst 2-11 (Mus musculus castaneus (CAST/EiJ)); conditions: 10 nM DNA, polydIdC; 10 mM Tris pH 7.5, 50 mM KCl, 50 uM ZnCl2, 0.05% NP-40 (1x TKZN), usually 50 ng/ul polydIdC, 60 min at RT; 5% native PAGE in 0.5x TBE; recombinant protein; protein details: His; label: 5' biotin
[11] = test system: eYFP-ZnF-Cst 2-11 (Mus musculus castaneus (CAST/EiJ)); conditions: 10 mM Tris pH 7.5, 50 mM KCl, 50 uM ZnCl2, 0.05% NP-40 (1x TKZN), usually 50 ng/ul polydIdC, 60 min at RT, 5% native PAGE in 0.5x TBE, recombinant protein, protein details: His, eYFP
[12] = lower shift and supershift, label: biotin

Measured: binding result

GTGGGAGGAGATGGTGGGTGAATAGTGTGCAGACTTGGACCCTGCCCTTTCTTTACGCATTCCACTAACCATGGG (double strand) [single-Hlx1 75 bp]
binds: [1]; trimer, 5 ZnFs suffice, label: 5' biotin | [2]; label: 5' biotin | [3] | [4]; label: 5' biotin | [5]; complex confirmed by MALDI-TOF MS, label: 5' biotin | [6]; label: 5' biotin | [7] | [8]; label: 5' biotin | [9]; label: 5' biotin | [10] | [11]; 10 nM DNA, polydIdC, label: 5' biotin

GAGATGGGGTCCTTTGTGCTTTAATAGTGTGCAGACTTGGACCCTGCCCTTTCTTTGTAAGGCTTCGTGGTATGGGATCCGTGTGGATGAACCCTGAGCTGCCTAAAGGTCACTTGGAGTAAGAAGACTGCTGTGAAATAGTGTGCAGACTTGGACCCTGCCCTTTCTTTTGGAATTATACCAGAGGCACATGCAAGGCTGGGCATCAGCCGGAAGGAAGAAATGGACACAC (double strand) [tandem-Hlx1-BamHI 232 bp]
binds: [5]; lower shift and supershift, BamHI digest separates the complexes, label: biotin

AACCCTGAGCTGCCTAAAGGTCAAATAGTGTGCAGACTTGGACCCTGCCCTTTCTTTAATAGTGTGCAGACTTGGACCCTGCCCTTTCTTTCTGCTGTGAATACCAGAGGCACA (double strand) [tandem-Hlx1 114 bp]
binds: [1]; small assay I, label: biotin | [2]; [12] | [4]; [12] | [6]; [12] | [8]; [12] | [9]; small assay I, label: biotin | [11]; [12]
